No constants are given. Whether binding was seen depends on the method and setting. For some assays here: In cells and extracts the contact can be indirect. Some results given as binding are weak or reduced against the parent protein; the word gives no strength. Sequences can lack the tags named with a protein.
What was measured:
[1] = target: endogenous PlexA2 on mouse hippocampal neurons (mouse (endogenous in primary hippocampal neurons)) (UniProt P70207); test: ligand bound to cells, detected by Western blot; hippocampal neurons from WT, Plxna1-/- and Plxna2-/- mice incubated with Sema5A-Fc (50 nM) for 1 hr, rinsed extensively, lysed, Western blot; only the binder purified
[2] = target: endogenous PlexA1 on mouse hippocampal neurons (mouse (endogenous in primary hippocampal neurons)) (UniProt P70206); test: as above
[3] = target: T1, PlexA2 lacking the cytoplasmic domain (PlexA2^Δcyt) (mouse) (UniProt P70207); test: binding of AP-clustered Fc fusion protein to transfected cells; COS7 cells transfected with PlexA or semaphorin constructs, incubated 75 min in OptiMEM with Fc fusion protein preclustered with anti-human IgG conjugated to alkaline phosphatase; rinsed, fixed, developed with NBT/BCIP; only the binder purified
T1 sequence: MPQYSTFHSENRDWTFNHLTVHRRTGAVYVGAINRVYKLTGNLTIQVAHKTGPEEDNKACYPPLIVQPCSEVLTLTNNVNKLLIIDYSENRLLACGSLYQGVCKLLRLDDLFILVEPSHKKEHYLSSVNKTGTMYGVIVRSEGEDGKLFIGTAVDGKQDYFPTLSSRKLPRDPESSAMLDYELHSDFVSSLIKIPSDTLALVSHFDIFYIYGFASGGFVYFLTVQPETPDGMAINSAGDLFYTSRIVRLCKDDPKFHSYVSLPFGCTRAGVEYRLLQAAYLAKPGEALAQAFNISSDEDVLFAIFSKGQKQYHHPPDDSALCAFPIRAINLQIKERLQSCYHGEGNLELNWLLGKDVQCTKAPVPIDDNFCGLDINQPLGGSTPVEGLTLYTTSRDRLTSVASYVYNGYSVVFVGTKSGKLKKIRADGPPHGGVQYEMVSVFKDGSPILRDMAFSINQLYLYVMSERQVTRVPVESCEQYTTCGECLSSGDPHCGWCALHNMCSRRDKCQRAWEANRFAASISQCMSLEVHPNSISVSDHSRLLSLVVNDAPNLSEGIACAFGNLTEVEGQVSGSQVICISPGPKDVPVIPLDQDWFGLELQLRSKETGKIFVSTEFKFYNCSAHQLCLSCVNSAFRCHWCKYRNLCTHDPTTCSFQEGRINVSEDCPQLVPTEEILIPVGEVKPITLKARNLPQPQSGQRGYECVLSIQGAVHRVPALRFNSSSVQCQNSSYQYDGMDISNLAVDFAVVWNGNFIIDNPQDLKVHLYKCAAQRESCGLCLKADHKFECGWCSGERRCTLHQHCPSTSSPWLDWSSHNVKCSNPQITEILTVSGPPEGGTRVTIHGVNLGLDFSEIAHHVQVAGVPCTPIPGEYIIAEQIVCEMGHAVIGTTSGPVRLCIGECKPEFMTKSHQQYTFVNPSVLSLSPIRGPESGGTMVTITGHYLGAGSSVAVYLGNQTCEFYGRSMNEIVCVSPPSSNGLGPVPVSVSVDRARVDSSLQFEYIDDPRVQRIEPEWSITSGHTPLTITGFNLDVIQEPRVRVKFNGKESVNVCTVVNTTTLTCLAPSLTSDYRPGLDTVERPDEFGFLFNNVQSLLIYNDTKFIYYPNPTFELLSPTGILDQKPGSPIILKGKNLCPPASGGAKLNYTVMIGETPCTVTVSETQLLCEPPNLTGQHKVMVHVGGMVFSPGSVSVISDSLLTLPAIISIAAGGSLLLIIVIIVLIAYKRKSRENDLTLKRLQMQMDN

Sequences of proteins named here, by UniProt entry; tags and fusion partners are left off. A change or cut given only in a name is not applied to a line headed by its entry. Residues count along the entry.
UniProt P70206: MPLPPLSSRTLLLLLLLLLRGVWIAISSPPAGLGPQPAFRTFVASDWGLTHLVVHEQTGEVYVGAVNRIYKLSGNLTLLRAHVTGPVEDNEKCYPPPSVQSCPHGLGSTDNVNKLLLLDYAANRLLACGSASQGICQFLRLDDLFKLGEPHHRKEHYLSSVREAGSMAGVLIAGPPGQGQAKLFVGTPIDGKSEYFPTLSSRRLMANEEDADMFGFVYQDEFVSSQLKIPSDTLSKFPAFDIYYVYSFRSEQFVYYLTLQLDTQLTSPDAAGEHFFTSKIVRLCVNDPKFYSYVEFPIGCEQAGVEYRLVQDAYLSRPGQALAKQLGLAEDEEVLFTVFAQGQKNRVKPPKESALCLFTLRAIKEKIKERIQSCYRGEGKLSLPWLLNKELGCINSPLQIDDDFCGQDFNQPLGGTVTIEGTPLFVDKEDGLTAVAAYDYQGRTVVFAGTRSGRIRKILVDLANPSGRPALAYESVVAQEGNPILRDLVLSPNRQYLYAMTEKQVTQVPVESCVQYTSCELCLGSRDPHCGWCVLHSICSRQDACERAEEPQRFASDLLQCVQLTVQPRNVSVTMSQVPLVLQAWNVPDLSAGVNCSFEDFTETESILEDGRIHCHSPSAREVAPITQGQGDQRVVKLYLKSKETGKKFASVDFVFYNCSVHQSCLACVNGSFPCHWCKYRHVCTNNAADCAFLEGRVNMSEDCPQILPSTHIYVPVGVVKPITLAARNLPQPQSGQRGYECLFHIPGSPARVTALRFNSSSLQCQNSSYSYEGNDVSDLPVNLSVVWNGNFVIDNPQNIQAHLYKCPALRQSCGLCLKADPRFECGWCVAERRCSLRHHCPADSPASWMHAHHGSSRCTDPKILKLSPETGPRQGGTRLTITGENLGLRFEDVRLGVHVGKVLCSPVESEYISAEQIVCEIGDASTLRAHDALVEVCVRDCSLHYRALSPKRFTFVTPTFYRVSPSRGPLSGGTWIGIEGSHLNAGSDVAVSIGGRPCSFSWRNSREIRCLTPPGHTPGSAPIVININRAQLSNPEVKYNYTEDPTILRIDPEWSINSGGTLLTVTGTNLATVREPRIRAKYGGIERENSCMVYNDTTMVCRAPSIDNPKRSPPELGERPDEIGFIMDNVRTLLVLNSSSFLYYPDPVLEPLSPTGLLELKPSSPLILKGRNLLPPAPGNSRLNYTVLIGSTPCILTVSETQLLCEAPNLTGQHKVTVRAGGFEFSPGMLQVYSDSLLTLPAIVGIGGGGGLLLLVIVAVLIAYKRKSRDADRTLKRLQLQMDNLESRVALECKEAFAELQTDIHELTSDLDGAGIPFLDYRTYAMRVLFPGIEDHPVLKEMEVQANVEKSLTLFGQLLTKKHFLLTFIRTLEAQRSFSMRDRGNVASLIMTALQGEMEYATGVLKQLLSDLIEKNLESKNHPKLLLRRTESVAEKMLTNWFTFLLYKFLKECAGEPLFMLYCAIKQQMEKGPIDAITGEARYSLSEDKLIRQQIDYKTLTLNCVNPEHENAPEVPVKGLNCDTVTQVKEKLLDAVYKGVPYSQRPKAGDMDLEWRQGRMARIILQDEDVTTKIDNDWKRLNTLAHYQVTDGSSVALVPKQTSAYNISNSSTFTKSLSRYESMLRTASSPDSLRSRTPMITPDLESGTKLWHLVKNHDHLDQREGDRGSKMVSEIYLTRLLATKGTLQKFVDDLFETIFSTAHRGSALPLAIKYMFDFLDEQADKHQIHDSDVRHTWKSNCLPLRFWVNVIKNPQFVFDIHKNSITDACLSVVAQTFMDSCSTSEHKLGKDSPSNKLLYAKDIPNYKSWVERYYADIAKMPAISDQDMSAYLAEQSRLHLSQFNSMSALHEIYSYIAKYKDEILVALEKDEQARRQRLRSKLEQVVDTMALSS
endogenous PlexA1 on mouse hippocampal neurons (mouse (endogenous in primary hippocampal neurons)): residues 28-1894 of P70206
PlexA1 lacking the cytoplasmic domain (PlexA1^Δcyt): residues 28-1283 of P70206

[4] = target: full-length PlexA1 with an N-terminal 6xMyc tag (mouse) (UniProt P70206); test: as above
[5] = target: full-length PlexA2 with an N-terminal 6xMyc tag (mouse) (UniProt P70207); test: as above
[6] = target: PlexA2 RasGAP-deficient mutant (PlexA2^RR) (mouse) (UniProt P70207); test: as above
[7] = target: PlexA1 lacking the cytoplasmic domain (PlexA1^Δcyt) (mouse) (UniProt P70206); test: as above
[8] = target: endogenous PlexA2 on mouse hippocampal neurons (mouse (endogenous in primary hippocampal neurons)) (UniProt P70207); test: binding of AP-clustered Fc fusion protein to primary neurons; non-transfected primary mouse hippocampal neurons of WT and knock-out mice, Fc fusion protein preclustered with anti-human IgG-AP, NeuroBasal medium, NBT/BCIP; only the binder purified
[9] = target: endogenous PlexA1 on mouse hippocampal neurons (mouse (endogenous in primary hippocampal neurons)) (UniProt P70206); test: as above
[10] = target: full-length PlexA2 with an N-terminal 6xMyc tag (mouse) (UniProt P70207); test: binding of AP-clustered Fc fusion protein to transfected cells (cis competition); Sema5A-Fc super-clustered with anti-Fc-AP on COS7 cells co-expressing PlexA2 with GFP, Sema6D, Sema5A, S5A^Δcyt or S5A^ΔTSR; bound ligand quantified; only the binder purified
[11] = target: T2, Sema5A-Fc (Sema5A ectodomain fused to Fc) (rat) (UniProt D3ZTD8); test: pull-down; Sema5A-Fc or human IgG (50 nM) incubated with 6xMyc-tagged PlexA1 or PlexA2 ectodomain produced in HEK293T cells, pulled down with Protein G Plus/Protein A-agarose beads, anti-myc immunoblot; only the target purified
T2 sequence: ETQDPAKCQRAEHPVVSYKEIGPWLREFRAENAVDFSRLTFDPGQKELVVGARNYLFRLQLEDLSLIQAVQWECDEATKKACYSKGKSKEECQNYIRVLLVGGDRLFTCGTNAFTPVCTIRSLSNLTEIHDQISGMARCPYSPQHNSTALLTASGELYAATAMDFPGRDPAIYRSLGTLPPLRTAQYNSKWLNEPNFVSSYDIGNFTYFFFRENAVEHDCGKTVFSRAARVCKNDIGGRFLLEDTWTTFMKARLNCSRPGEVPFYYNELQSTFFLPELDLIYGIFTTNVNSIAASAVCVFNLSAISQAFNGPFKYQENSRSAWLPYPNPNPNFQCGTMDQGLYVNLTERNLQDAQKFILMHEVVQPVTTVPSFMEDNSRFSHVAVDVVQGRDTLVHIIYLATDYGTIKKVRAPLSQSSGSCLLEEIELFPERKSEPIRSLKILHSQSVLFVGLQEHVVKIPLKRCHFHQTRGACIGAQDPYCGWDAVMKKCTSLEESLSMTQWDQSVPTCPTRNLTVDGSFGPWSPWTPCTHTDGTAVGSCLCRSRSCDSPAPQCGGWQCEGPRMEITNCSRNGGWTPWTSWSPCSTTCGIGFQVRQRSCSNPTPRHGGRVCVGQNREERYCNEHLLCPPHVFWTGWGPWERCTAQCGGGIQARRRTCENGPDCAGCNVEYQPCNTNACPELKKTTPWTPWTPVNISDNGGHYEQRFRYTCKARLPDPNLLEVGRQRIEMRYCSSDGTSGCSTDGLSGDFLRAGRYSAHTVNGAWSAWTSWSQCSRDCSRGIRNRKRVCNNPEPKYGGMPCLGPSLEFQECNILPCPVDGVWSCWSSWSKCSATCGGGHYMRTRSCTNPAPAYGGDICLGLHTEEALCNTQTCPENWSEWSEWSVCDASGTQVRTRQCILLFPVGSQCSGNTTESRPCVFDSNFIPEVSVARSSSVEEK

Measured: binding

B1: Sema5A-Fc (Sema5A ectodomain fused to Fc) (Fc fusion, UniProt D3ZTD8 23-961)
chain: ETQDPAKCQRAEHPVVSYKEIGPWLREFRAENAVDFSRLTFDPGQKELVVGARNYLFRLQLEDLSLIQAVQWECDEATKKACYSKGKSKEECQNYIRVLLVGGDRLFTCGTNAFTPVCTIRSLSNLTEIHDQISGMARCPYSPQHNSTALLTASGELYAATAMDFPGRDPAIYRSLGTLPPLRTAQYNSKWLNEPNFVSSYDIGNFTYFFFRENAVEHDCGKTVFSRAARVCKNDIGGRFLLEDTWTTFMKARLNCSRPGEVPFYYNELQSTFFLPELDLIYGIFTTNVNSIAASAVCVFNLSAISQAFNGPFKYQENSRSAWLPYPNPNPNFQCGTMDQGLYVNLTERNLQDAQKFILMHEVVQPVTTVPSFMEDNSRFSHVAVDVVQGRDTLVHIIYLATDYGTIKKVRAPLSQSSGSCLLEEIELFPERKSEPIRSLKILHSQSVLFVGLQEHVVKIPLKRCHFHQTRGACIGAQDPYCGWDAVMKKCTSLEESLSMTQWDQSVPTCPTRNLTVDGSFGPWSPWTPCTHTDGTAVGSCLCRSRSCDSPAPQCGGWQCEGPRMEITNCSRNGGWTPWTSWSPCSTTCGIGFQVRQRSCSNPTPRHGGRVCVGQNREERYCNEHLLCPPHVFWTGWGPWERCTAQCGGGIQARRRTCENGPDCAGCNVEYQPCNTNACPELKKTTPWTPWTPVNISDNGGHYEQRFRYTCKARLPDPNLLEVGRQRIEMRYCSSDGTSGCSTDGLSGDFLRAGRYSAHTVNGAWSAWTSWSQCSRDCSRGIRNRKRVCNNPEPKYGGMPCLGPSLEFQECNILPCPVDGVWSCWSSWSKCSATCGGGHYMRTRSCTNPAPAYGGDICLGLHTEEALCNTQTCPENWSEWSEWSVCDASGTQVRTRQCILLFPVGSQCSGNTTESRPCVFDSNFIPEVSVARSSSVEEK
not listed: [11]
binds: all other assays above

B2: 6xMyc-tagged PlexA2 ectodomain (6x-myc-PlexA2^ect) (domain or fragment, UniProt P70207 35-1237)
chain: MPQYSTFHSENRDWTFNHLTVHRRTGAVYVGAINRVYKLTGNLTIQVAHKTGPEEDNKACYPPLIVQPCSEVLTLTNNVNKLLIIDYSENRLLACGSLYQGVCKLLRLDDLFILVEPSHKKEHYLSSVNKTGTMYGVIVRSEGEDGKLFIGTAVDGKQDYFPTLSSRKLPRDPESSAMLDYELHSDFVSSLIKIPSDTLALVSHFDIFYIYGFASGGFVYFLTVQPETPDGMAINSAGDLFYTSRIVRLCKDDPKFHSYVSLPFGCTRAGVEYRLLQAAYLAKPGEALAQAFNISSDEDVLFAIFSKGQKQYHHPPDDSALCAFPIRAINLQIKERLQSCYHGEGNLELNWLLGKDVQCTKAPVPIDDNFCGLDINQPLGGSTPVEGLTLYTTSRDRLTSVASYVYNGYSVVFVGTKSGKLKKIRADGPPHGGVQYEMVSVFKDGSPILRDMAFSINQLYLYVMSERQVTRVPVESCEQYTTCGECLSSGDPHCGWCALHNMCSRRDKCQRAWEANRFAASISQCMSLEVHPNSISVSDHSRLLSLVVNDAPNLSEGIACAFGNLTEVEGQVSGSQVICISPGPKDVPVIPLDQDWFGLELQLRSKETGKIFVSTEFKFYNCSAHQLCLSCVNSAFRCHWCKYRNLCTHDPTTCSFQEGRINVSEDCPQLVPTEEILIPVGEVKPITLKARNLPQPQSGQRGYECVLSIQGAVHRVPALRFNSSSVQCQNSSYQYDGMDISNLAVDFAVVWNGNFIIDNPQDLKVHLYKCAAQRESCGLCLKADHKFECGWCSGERRCTLHQHCPSTSSPWLDWSSHNVKCSNPQITEILTVSGPPEGGTRVTIHGVNLGLDFSEIAHHVQVAGVPCTPIPGEYIIAEQIVCEMGHAVIGTTSGPVRLCIGECKPEFMTKSHQQYTFVNPSVLSLSPIRGPESGGTMVTITGHYLGAGSSVAVYLGNQTCEFYGRSMNEIVCVSPPSSNGLGPVPVSVSVDRARVDSSLQFEYIDDPRVQRIEPEWSITSGHTPLTITGFNLDVIQEPRVRVKFNGKESVNVCTVVNTTTLTCLAPSLTSDYRPGLDTVERPDEFGFLFNNVQSLLIYNDTKFIYYPNPTFELLSPTGILDQKPGSPIILKGKNLCPPASGGAKLNYTVMIGETPCTVTVSETQLLCEPPNLTGQHKVMVHVGGMVFSPGSVSVISDSLLTLP
binds: [11]
